Laboratory results from patent US10842838B2, “Method for the use of botanical extracts in the treatment of viral infections” (priority 2012, dated 2020).
At least one structure is not confirmed: it was looked up by name or label, or the drawing left a doubt.

Test system: VACV
Assay type: cell-based, vaccinia virus
Settings: 100 pfu VACV, 48 HPI

Q: How did the “antiviral activity, VACV plaques” value turn out when `C=C(C)[C@@H]1CC[C@]2(C(=O)O)CC[C@]3(C)[C@H](CC[C@@H]4[C@@]5(C)CC[C@H](O)C(C)(C)[C@@H]5CC[C@]43C)[C@@H]12` [betulinic acid] was run?
A: Its value is “did not show suitable antiviral activity”.
